Record: PubChem BioAssay AID1259290 (Sanger Institute, 2017)

Screen: 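Kinases whose loss kills colorectal cancer cells alone or alongside targeted drugs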 (primary screen)
Cells: human SNUC1 colorectal cancer cells
Reagent: siRNA pool against human genes
Treatment: anchor drugs BYL719 1 µM, cetuximab 5 µg/ml or trametinib 10 nM, or DMSO vehicle alone
Read-out: 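Viability averaged over replicates and scaled to non-targeting siRNA, robust z-score with no drug, and synergy scores by drug for BYL719, cetuximab and trametinib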
Direction: viability z-score, siRNA alone: higher = more viable cells; low values mean essential gene; viability vs control, siRNA alone: higher = more viable cells; synergy score with BYL719 and synergy score with Cetuximab and synergy score with Trametinib: higher = stronger synthetic lethal effect with drug
Active means: 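a knock-down without drug scoring a robust z under -3 counts as essential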
Meaning of the calls: active = essential: knock-down alone cut viability (z below -3); inactive = no clear viability loss with knock-down alone
The deposit covers 794 reagents; shown is a part drawn at random. 9 of all reagents (1.1%) were called active. 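Calls rest on knock-down alone, not drug synergy; synergy above 0.15 was grouped apart and does not affect calls.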 Entries without a mark were called inactive. Viability is capped at 1. The record does not give: the amount of reagent, the time to read-out.

Gene | viability z-score, siRNA alone | viability vs control, siRNA alone | synergy score with BYL719 | synergy score with Cetuximab | synergy score with Trametinib
TTBK1 | 0.936 | 1 | 0.0333 | -0.0266 | 0.0329
FN3K | 0.555 | 0.966 | -0.226 | -0.0775 | 0.0791
CAMKV | 0.936 | 1 | -0.198 | -0.0447 | -0.0859
IDH2 | 0.153 | 0.929 | -0.0998 | -0.0132 | -0.0531
CAMK2G | 0.936 | 1 | -0.103 | -0.0337 | -0.0959
DLG2 | 0.345 | 0.947 | -0.241 | -0.0658 | -0.0164
TP53 | -0.832 | 0.841 | -0.246 | -0.192 | -0.0477
IKBKE | -0.0583 | 0.91 | -0.0198 | 0.0459 | 0.0684
CDC42BPG | 0.344 | 0.947 | -0.144 | 0.0201 | 0.0148
PIK3R1 | 0.616 | 0.971 | -0.194 | 0.000491 | -0.0653
SYK | 0.817 | 0.989 | -0.13 | 0.00211 | 0.134
SHPK | 0.183 | 0.932 | -0.0535 | -0.0557 | -0.00161
KALRN | -1.1 | 0.817 | -0.221 | -0.0999 | -0.137
IPPK | -0.353 | 0.884 | -0.109 | -0.0284 | -0.105
ADPGK | -0.586 | 0.863 | 0.0301 | -0.0641 | -0.0434
KMT2B | 0.936 | 1 | -0.0563 | 0.0364 | 0.0359
CDKN1C | 0.936 | 1 | -0.106 | -0.0447 | 0.0941
ITPKA | -1.66 | 0.766 | -0.0458 | -0.0124 | 0.0445
MAP2K6 | -1.2 | 0.808 | 0.0191 | -0.165 | 0.0155
CRKL | -0.469 | 0.873 | -0.3 | 0.0365 | -0.0921
